From the supplement of paper PMC10849652
The other results are listed elsewhere or left out.

Sequences of proteins named here, by UniProt entry; tags and fusion partners are left off. A change or cut given only in a name is not applied to a line headed by its entry.
UniProt Q9BQ95: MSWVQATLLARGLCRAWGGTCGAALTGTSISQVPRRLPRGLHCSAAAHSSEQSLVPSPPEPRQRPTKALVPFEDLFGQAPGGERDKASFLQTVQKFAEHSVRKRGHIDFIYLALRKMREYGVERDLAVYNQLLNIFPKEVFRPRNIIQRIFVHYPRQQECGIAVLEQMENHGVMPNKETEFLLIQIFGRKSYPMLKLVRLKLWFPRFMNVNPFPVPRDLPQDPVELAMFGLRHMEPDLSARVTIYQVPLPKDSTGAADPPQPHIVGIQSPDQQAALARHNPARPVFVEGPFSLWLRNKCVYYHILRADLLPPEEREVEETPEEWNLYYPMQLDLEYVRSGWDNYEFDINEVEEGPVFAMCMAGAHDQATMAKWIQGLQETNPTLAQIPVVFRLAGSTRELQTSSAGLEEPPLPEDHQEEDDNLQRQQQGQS
UniProt Q7L8W6: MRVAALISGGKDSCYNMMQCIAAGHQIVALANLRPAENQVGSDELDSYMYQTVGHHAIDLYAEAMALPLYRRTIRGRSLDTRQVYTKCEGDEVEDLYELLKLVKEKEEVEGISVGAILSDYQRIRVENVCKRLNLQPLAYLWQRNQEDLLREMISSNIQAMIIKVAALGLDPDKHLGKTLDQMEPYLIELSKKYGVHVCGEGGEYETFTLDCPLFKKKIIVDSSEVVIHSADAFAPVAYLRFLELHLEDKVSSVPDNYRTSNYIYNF
UniProt O60762: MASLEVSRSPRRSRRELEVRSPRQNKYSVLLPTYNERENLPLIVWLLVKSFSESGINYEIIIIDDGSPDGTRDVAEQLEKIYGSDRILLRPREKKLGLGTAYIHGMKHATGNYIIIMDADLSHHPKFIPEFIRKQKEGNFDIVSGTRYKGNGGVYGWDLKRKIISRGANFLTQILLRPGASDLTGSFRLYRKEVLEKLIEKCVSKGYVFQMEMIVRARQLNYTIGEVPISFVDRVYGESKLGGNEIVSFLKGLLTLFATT
UniProt O60869: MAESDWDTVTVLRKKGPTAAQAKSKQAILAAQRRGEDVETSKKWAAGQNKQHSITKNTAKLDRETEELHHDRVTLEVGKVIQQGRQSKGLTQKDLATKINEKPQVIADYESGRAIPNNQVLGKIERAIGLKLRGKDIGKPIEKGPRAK
UniProt Q9NY33: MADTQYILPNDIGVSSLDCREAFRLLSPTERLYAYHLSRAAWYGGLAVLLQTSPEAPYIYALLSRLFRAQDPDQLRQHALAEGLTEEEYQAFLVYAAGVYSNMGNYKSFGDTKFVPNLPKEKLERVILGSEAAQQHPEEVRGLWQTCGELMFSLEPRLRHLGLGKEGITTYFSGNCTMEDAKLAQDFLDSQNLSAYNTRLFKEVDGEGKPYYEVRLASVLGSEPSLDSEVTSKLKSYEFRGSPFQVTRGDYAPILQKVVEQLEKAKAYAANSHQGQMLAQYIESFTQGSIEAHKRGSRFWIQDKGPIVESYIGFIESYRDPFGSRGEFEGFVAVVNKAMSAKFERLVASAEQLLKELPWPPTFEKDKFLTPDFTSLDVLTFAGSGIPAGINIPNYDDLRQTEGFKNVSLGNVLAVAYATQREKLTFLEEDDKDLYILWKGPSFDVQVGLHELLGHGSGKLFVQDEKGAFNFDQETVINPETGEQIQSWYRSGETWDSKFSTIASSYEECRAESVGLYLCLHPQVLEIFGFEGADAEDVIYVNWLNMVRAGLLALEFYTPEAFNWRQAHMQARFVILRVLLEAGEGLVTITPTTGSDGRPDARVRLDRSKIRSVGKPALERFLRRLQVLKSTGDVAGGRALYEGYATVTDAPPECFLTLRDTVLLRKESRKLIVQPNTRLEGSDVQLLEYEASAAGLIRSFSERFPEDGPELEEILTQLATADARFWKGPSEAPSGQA
UniProt Q9NP97, whole entry, looked up: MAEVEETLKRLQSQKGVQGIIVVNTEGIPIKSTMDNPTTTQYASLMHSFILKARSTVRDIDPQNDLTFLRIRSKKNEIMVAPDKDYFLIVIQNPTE
UniProt Q14204, whole entry, looked up: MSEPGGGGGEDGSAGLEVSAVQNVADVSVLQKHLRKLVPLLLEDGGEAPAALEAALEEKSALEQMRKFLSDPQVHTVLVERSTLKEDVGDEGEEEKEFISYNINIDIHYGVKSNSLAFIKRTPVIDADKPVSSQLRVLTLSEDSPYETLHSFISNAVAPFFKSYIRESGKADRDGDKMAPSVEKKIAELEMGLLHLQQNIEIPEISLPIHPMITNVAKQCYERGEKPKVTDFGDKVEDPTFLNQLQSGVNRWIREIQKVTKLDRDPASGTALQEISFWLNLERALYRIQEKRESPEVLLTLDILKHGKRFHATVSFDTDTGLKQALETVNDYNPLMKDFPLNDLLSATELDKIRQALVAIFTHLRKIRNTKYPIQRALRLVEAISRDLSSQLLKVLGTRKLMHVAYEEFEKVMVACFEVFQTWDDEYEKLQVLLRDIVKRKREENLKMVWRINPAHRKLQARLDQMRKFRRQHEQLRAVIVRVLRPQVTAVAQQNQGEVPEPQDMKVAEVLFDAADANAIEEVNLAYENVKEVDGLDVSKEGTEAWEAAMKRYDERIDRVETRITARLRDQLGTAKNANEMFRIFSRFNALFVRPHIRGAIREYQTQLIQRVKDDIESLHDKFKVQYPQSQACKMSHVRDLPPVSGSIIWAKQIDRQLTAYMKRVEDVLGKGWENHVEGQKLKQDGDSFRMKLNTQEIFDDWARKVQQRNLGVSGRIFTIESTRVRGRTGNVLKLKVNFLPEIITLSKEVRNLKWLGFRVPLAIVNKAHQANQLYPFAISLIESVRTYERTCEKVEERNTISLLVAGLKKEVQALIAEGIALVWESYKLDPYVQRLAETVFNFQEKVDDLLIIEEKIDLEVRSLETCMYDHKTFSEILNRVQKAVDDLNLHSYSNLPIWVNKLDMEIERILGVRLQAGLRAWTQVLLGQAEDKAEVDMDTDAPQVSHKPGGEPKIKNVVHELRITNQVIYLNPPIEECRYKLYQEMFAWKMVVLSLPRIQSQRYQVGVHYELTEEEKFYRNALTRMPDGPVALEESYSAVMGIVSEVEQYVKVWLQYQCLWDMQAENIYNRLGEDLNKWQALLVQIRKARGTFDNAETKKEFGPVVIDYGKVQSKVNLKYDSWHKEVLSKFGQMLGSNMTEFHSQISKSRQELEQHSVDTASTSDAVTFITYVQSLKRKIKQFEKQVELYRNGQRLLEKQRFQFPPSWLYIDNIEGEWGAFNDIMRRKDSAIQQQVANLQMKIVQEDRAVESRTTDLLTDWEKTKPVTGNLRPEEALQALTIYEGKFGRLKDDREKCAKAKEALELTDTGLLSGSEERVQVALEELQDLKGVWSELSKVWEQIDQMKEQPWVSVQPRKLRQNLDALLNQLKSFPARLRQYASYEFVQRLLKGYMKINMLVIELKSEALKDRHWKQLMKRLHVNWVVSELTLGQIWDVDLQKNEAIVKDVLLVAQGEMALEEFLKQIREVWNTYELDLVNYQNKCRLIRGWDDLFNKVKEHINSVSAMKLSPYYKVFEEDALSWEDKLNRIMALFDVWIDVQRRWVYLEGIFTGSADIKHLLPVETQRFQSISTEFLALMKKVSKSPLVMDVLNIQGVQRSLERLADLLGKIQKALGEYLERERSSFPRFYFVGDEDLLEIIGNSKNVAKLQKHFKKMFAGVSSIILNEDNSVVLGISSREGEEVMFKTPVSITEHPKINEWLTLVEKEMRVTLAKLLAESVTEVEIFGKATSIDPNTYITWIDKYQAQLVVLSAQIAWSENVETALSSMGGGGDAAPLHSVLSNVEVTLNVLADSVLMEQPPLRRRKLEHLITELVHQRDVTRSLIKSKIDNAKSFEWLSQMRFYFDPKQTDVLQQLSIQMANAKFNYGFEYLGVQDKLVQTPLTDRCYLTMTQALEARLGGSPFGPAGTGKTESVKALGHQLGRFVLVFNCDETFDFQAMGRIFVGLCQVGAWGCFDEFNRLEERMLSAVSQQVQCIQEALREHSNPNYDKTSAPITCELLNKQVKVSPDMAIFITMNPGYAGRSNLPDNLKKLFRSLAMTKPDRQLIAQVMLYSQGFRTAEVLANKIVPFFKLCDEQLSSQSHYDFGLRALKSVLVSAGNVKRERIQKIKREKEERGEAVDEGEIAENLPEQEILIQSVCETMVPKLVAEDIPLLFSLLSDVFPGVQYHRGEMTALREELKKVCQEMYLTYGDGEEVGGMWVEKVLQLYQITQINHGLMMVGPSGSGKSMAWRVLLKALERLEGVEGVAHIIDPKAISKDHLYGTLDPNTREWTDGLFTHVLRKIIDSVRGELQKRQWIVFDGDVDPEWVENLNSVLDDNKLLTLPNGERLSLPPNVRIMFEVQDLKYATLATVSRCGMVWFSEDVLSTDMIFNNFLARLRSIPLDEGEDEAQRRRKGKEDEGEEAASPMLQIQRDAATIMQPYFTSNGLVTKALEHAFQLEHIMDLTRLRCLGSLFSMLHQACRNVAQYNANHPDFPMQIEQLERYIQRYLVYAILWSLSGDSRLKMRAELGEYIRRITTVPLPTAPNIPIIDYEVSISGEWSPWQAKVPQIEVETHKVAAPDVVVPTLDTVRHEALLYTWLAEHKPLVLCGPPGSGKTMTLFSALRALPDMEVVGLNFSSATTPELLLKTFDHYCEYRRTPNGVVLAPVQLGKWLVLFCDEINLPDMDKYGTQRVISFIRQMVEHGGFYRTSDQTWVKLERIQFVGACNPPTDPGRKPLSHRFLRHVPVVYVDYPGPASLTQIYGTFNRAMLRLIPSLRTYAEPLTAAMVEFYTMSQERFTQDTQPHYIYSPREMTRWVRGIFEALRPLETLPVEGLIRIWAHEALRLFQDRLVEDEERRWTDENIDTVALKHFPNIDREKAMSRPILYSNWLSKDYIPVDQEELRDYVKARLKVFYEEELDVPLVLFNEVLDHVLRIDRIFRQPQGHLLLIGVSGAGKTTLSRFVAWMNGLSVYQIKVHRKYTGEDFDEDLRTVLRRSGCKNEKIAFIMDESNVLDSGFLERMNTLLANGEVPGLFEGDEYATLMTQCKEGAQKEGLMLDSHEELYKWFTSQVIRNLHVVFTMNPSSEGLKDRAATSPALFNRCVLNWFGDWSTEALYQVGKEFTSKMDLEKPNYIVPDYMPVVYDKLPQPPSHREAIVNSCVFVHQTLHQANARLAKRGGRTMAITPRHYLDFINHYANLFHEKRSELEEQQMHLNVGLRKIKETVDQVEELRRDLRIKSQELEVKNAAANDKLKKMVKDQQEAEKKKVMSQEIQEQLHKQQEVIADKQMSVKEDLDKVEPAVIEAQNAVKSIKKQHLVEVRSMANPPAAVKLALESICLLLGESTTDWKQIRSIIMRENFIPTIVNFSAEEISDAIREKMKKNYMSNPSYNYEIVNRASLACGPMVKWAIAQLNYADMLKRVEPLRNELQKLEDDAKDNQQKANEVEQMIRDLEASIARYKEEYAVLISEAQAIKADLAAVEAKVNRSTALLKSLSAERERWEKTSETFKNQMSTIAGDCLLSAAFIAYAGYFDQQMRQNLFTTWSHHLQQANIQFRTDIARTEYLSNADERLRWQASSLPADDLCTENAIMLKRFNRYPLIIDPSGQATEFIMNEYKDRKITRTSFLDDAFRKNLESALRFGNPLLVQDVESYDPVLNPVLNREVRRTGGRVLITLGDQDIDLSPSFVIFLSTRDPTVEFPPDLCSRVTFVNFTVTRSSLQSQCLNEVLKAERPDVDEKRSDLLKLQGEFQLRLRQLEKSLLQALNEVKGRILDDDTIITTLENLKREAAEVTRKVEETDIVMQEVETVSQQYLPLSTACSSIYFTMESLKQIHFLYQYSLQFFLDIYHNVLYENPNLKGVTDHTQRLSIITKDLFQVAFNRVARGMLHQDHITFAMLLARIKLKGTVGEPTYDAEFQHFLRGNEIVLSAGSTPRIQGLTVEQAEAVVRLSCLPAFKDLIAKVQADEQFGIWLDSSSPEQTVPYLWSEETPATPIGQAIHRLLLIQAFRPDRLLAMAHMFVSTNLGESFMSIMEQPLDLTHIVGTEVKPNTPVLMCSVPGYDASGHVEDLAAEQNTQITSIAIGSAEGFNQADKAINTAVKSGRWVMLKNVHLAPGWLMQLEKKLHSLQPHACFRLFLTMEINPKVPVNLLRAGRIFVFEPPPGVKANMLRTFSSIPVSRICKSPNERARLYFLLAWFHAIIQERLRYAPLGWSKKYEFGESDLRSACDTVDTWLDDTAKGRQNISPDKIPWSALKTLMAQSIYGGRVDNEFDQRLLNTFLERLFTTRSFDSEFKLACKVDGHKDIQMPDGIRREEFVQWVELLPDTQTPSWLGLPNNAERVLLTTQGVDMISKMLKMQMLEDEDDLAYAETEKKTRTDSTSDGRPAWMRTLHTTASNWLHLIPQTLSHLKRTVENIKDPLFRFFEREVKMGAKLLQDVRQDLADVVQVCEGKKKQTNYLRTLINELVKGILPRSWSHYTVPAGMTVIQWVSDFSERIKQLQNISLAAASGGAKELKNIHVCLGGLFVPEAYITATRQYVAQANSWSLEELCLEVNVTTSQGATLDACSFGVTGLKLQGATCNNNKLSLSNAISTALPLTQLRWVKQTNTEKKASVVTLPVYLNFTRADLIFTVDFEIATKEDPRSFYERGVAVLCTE

What was measured:
Assay in all cases: log2 fold change, soluble protein after heating vs DMSO (PISA); higher = thermal stabilisation; K562 lysate, 10 uM; active = over 0.2 and 3.5 SD of the protein, either way, in both replicates (recomputed)
nilotinib = compound: Cc1cn(-c2cc(NC(=O)c3ccc(C)c(Nc4nccc(-c5cccnc5)n4)c3)cc(C(F)(F)F)c2)cn1 [nilotinib]
Outline: (§1)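 Pellets of K562 cells were dounce-homogenised in PBS pH 7.4 with 1 mM MgCl2, and the crude extract was held at 1 mg/mL protein for a 30 min treatment with 10 μM compound. Aliquots were heated for 3 min over 48°C-58°C and pooled before NP-40 was added to 0.5% at 4°C. The supernatant from 21,000xg for 90 min was quantified by TMTpro 16plex LC-MS/MS with channel sums equalised. Values are reported from duplicates as log-two fold change in thermal stability relative to solvent controls.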

[1] = compound: Cc1nc(Nc2n[nH]c3c2CN(C(=O)N[C@H](CN(C)C)c2ccccc2)C3(C)C)c2sccc2n1
Outline: as §1

dasatinib = compound: Cc1nc(Nc2ncc(C(=O)Nc3c(C)cccc3Cl)s2)cc(N2CCN(CCO)CC2)n1 [dasatinib]
Outline: as §1

[2] = compound: Cc1ncc(-c2ccnc(Nc3ccc(S(C)(=O)=O)cc3)n2)n1C(C)C
Outline: as §1

[3] = compound: Cn1cc(-c2ccc3c(c2)CCN3C(=O)Cc2cccc(C(F)(F)F)c2)c2c(N)ncnc21
Outline: as §1

quisinostat = compound: Cn1cc(CNCC2CCN(c3ncc(C(=O)NO)cn3)CC2)c2ccccc21 [quisinostat]
Outline: as §1

tipifarnib = compound: Cn1cncc1[C@@](N)(c1ccc(Cl)cc1)c1ccc2c(c1)c(-c1cccc(Cl)c1)cc(=O)n2C [tipifarnib]
Outline: as §1

[4] = compound: NC(=O)Nc1cc(-c2cccc(F)c2)sc1C(=O)N[C@H]1CCCNC1
Outline: as §1

[5] = compound: NC(=O)c1cnc(N[C@@H]2CCCC[C@@H]2N)nc1Nc1cccc(-n2nccn2)c1
Outline: as §1

[6] = compound: NC1(c2ccc(-c3nc4ccn5c(=O)[nH]nc5c4cc3-c3ccccc3)cc2)CCC1
Outline: as §1

Measured: log2 fold change

DYNLL1 (UniProt P63167)
inactive: nilotinib 0.016 | [1] 0.067 | dasatinib -0.011 | [2] 0.06 | [3] -0.032 | quisinostat -0.066 | tipifarnib -0.013 | [4] -0.001 | [5] -0.018 | [6] -0.032

EEF1A1, A0A087WVQ9
inactive: nilotinib 0.124 | [1] 0.012 | dasatinib 0.006 | [2] 0.044 | [3] 0.002 | quisinostat -0.025 | tipifarnib -0.001 | [4] 0.024 | [5] 0.013 | [6] 0.016

DUS3L (UniProt Q96G46)
inactive: nilotinib 0.008 | [1] -0.022 | dasatinib -0.019 | [2] -0.014 | [3] 0.004 | quisinostat -0.098 | tipifarnib -0.017 | [4] 0.026 | [5] 0 | [6] -0.021

ECSIT (UniProt Q9BQ95)
inactive: nilotinib -0.021 | [1] -0.004 | dasatinib 0.027 | [2] 0.069 | [3] -0.038 | quisinostat 0.011 | tipifarnib 0.022 | [4] -0.017 | [5] 0.041 | [6] -0.001

DPH6 (UniProt Q7L8W6)
inactive: nilotinib -0.032 | [1] 0.008 | dasatinib 0.006 | [2] -0.014 | [3] 0.022 | quisinostat 0.045 | tipifarnib 0.014 | [4] 0.018 | [5] 0.034 | [6] 0.018

DPH7 (UniProt Q9BTV6)
inactive: nilotinib 0.003 | [1] 0.015 | dasatinib 0.008 | [2] 0.024 | [3] -0.02 | quisinostat -0.099 | tipifarnib 0.013 | [4] -0.027 | [5] 0.023 | [6] 0.017

DRG1 (UniProt Q9Y295)
inactive: nilotinib 0.011 | [1] -0.021 | dasatinib -0.002 | [2] -0.002 | [3] 0.008 | quisinostat 0.023 | tipifarnib 0.029 | [4] -0.009 | [5] -0.004 | [6] -0.01

EED, A0A5F9ZI63
inactive: nilotinib -0.019 | [1] 0.035 | dasatinib -0.022 | [2] -0.005 | [3] -0.027 | quisinostat 0 | tipifarnib 0.006 | [4] 0.026 | [5] -0.006 | [6] -0.015

DXO (UniProt O77932)
inactive: nilotinib 0.113 | [1] 0.104 | dasatinib 0.073 | [2] -0.053 | [3] 0.151 | quisinostat -0.082 | tipifarnib 0.045 | [4] 0.08 | [5] -0.048 | [6] -0.03

Taken from the entries so far (seven entries):
DUS3L (UniProt Q96G46)
inactive: nilotinib 0.008 | [1] -0.022 | dasatinib -0.019 | [2] -0.014 | [3] 0.004 | quisinostat -0.098 | tipifarnib -0.017 | [4] 0.026 | [5] 0 | [6] -0.021

ECSIT (UniProt Q9BQ95)
inactive: nilotinib -0.021 | [1] -0.004 | dasatinib 0.027 | [2] 0.069 | [3] -0.038 | quisinostat 0.011 | tipifarnib 0.022 | [4] -0.017 | [5] 0.041 | [6] -0.001

DPH6 (UniProt Q7L8W6)
inactive: nilotinib -0.032 | [1] 0.008 | dasatinib 0.006 | [2] -0.014 | [3] 0.022 | quisinostat 0.045 | tipifarnib 0.014 | [4] 0.018 | [5] 0.034 | [6] 0.018

DPH7 (UniProt Q9BTV6)
inactive: nilotinib 0.003 | [1] 0.015 | dasatinib 0.008 | [2] 0.024 | [3] -0.02 | quisinostat -0.099 | tipifarnib 0.013 | [4] -0.027 | [5] 0.023 | [6] 0.017

DRG1 (UniProt Q9Y295)
inactive: nilotinib 0.011 | [1] -0.021 | dasatinib -0.002 | [2] -0.002 | [3] 0.008 | quisinostat 0.023 | tipifarnib 0.029 | [4] -0.009 | [5] -0.004 | [6] -0.01

EED, A0A5F9ZI63
inactive: nilotinib -0.019 | [1] 0.035 | dasatinib -0.022 | [2] -0.005 | [3] -0.027 | quisinostat 0 | tipifarnib 0.006 | [4] 0.026 | [5] -0.006 | [6] -0.015

DXO (UniProt O77932)
inactive: nilotinib 0.113 | [1] 0.104 | dasatinib 0.073 | [2] -0.053 | [3] 0.151 | quisinostat -0.082 | tipifarnib 0.045 | [4] 0.08 | [5] -0.048 | [6] -0.03

Next entries follow:

EDRF1 (UniProt Q3B7T1)
inactive: nilotinib -0.105 | [1] 0.023 | dasatinib 0.031 | [2] 0.105 | [3] -0.038 | quisinostat -0.235 | tipifarnib -0.086 | [4] 0.005 | [5] 0.038 | [6] 0.046

ECHDC1 (UniProt Q9NTX5)
inactive: nilotinib -0.061 | [1] -0.01 | dasatinib -0.033 | [2] -0.01 | [3] -0.004 | quisinostat 0 | tipifarnib 0.04 | [4] 0.006 | [5] -0.013 | [6] 0.011

EDEM2 (UniProt Q9BV94)
inactive: nilotinib -0.023 | [1] -0.071 | dasatinib 0.065 | [2] -0.016 | [3] 0.008 | quisinostat 0.158 | tipifarnib 0.004 | [4] -0.027 | [5] -0.074 | [6] -0.139

DTYMK (UniProt P23919)
inactive: nilotinib -0.003 | [1] 0.002 | dasatinib -0.072 | [2] -0.007 | [3] -0.025 | quisinostat -0.009 | tipifarnib 0.017 | [4] 0.045 | [5] -0.024 | [6] -0.007

EEF1AKMT4 (UniProt P0DPD7)
inactive: nilotinib -0.01 | [1] -0.064 | dasatinib -0.051 | [2] 0.04 | [3] -0.109 | quisinostat 0.075 | tipifarnib 0.004 | [4] 0.105 | [5] 0.096 | [6] -0.064

DYM (UniProt Q7RTS9)
inactive: nilotinib 0.016 | [1] 0.049 | dasatinib -0.059 | [2] -0.088 | [3] -0.017 | quisinostat 0.057 | tipifarnib -0.07 | [4] 0.069 | [5] 0.043 | [6] 0.06

DPM1 (UniProt O60762)
inactive: nilotinib 0.013 | [1] 0.019 | dasatinib 0.028 | [2] -0.014 | [3] 0.044 | quisinostat 0.057 | tipifarnib 0.03 | [4] 0.038 | [5] 0.019 | [6] -0.057

EHBP1L1 (UniProt Q8N3D4)
inactive: nilotinib 0.07 | [1] -0.024 | dasatinib -0.03 | [2] -0.019 | [3] 0.067 | quisinostat 0.003 | tipifarnib 0.019 | [4] -0.002 | [5] 0.077 | [6] 0.06

EDF1 (UniProt O60869)
inactive: nilotinib -0.005 | [1] -0.012 | dasatinib 0.02 | [2] -0.01 | [3] -0.072 | quisinostat 0.007 | tipifarnib -0.015 | [4] -0.023 | [5] -0.054 | [6] 0.012

DPP3 (UniProt Q9NY33)
inactive: nilotinib 0 | [1] 0 | dasatinib -0.016 | [2] 0 | [3] 0.023 | quisinostat 0.117 | tipifarnib -0.003 | [4] -0.006 | [5] -0.008 | [6] 0.005

EAPP (UniProt Q56P03)
inactive: nilotinib 0.039 | [1] 0.018 | dasatinib 0.024 | [2] -0.095 | [3] -0.001 | quisinostat 0.017 | tipifarnib 0.002 | [4] 0.021 | [5] 0.038 | [6] -0.045

EEF1D isoform 2 (UniProt P29692)
inactive: nilotinib -0.013 | [1] -0.02 | dasatinib -0.023 | [2] -0.029 | [3] -0.053 | quisinostat -0.009 | tipifarnib 0.01 | [4] -0.012 | [5] -0.001 | [6] -0.003

DYNC1I2 isoform 5 (UniProt Q13409)
inactive: nilotinib 0.029 | [1] 0.016 | dasatinib 0.008 | [2] -0.003 | [3] 0.001 | quisinostat 0.023 | tipifarnib -0.011 | [4] -0.014 | [5] -0.008 | [6] -0.01

EHMT2 (UniProt A2ABF8)
inactive: nilotinib -0.014 | [1] -0.008 | dasatinib 0 | [2] -0.026 | [3] 0.004 | quisinostat -0.084 | tipifarnib 0.012 | [4] 0.033 | [5] -0.026 | [6] 0.041

DYNLRB1 (UniProt Q9NP97)
inactive: nilotinib 0.078 | [1] 0.007 | dasatinib 0.036 | [2] 0.107 | [3] 0.028 | quisinostat -0.033 | tipifarnib -0.016 | [4] -0.03 | [5] -0.031 | [6] 0.051

DYNC1H1 (UniProt Q14204)
inactive: nilotinib -0.002 | [1] 0.005 | dasatinib -0.012 | [2] -0.005 | [3] 0.028 | quisinostat 0.008 | tipifarnib -0.002 | [4] 0.022 | [5] 0.008 | [6] -0.002

EDEM3 (UniProt Q9BZQ6)
inactive: nilotinib -0.002 | [1] -0.018 | dasatinib -0.024 | [2] 0.036 | [3] 0.023 | quisinostat -0.016 | tipifarnib -0.005 | [4] 0.044 | [5] 0.007 | [6] 0.014

EFTUD2 (UniProt Q15029)
inactive: nilotinib 0.007 | [1] -0.011 | dasatinib 0.018 | [2] -0.005 | [3] 0.008 | quisinostat -0.012 | tipifarnib 0.008 | [4] -0.004 | [5] -0.02 | [6] 0.005

EIF1B (UniProt O60739)
inactive: nilotinib 0.251 | [1] 0.231 | dasatinib -0.267 | [2] 0.463 | [3] 0.034 | quisinostat -0.031 | tipifarnib -0.057 | [4] -0.025 | [5] -0.019 | [6] 0.039

DPP7 (UniProt Q9UHL4)
inactive: nilotinib -0.001 | [1] -0.035 | dasatinib 0.018 | [2] -0.096 | [3] 0.013 | quisinostat -0.038 | tipifarnib 0.02 | [4] 0.002 | [5] -0.025 | [6] -0.017
